We go through one molecule from paper doi:10.1101/2024.12.01.626216.

Results are given in words; binding and its absence hold for the method and conditions named. In cells and extracts the contact can be indirect. Some entries that bind do so weakly or less than the wild type.

This assay concerns the target T1, DNAJC7 (human (endogenous in iPSC-derived motor neurons)) (UniProt Q99615).
T1 sequence: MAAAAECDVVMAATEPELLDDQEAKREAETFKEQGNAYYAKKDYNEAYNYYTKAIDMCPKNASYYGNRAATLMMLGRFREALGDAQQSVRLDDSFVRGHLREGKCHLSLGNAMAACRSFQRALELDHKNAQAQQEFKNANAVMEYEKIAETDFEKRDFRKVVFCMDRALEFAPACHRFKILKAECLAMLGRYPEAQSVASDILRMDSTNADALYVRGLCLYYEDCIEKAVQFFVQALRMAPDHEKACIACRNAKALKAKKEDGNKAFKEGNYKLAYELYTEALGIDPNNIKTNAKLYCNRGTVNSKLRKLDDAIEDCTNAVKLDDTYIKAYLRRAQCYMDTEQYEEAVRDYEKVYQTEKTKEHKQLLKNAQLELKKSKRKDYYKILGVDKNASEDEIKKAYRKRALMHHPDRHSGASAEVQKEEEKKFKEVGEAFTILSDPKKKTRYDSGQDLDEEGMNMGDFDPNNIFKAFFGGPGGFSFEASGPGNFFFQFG
Nature of the assay: co-IP; immunoprecipitation of endogenous DNAJC7 from iPSC-derived human motor neurons followed by Western blot; input = 4% of total protein.

B1: MATR3 (protein, UniProt P43243 1-847)
chain: MSKSFQQSSLSRDSQGHGRDLSAAGIGLLAAATQSLSMPASLGRMNQGTARLASLMNLGMSSSLNQQGAHSALSSASTSSHNLQSIFNIGSRGPLPLSSQHRGDADQASNILASFGLSARDLDELSRYPEDKITPENLPQILLQLKRRRTEEGPTLSYGRDGRSATREPPYRVPRDDWEEKRHFRRDSFDDRGPSLNPVLDYDHGSRSQESGYYDRMDYEDDRLRDGERCRDDSFFGETSHNYHKFDSEYERMGRGPGPLQERSLFEKKRGAPPSSNIEDFHGLLPKGYPHLCSICDLPVHSNKEWSQHINGASHSRRCQLLLEIYPEWNPDNDTGHTMGDPFMLQQSTNPAPGILGPPPPSFHLGGPAVGPRGNLGAGNGNLQGPRHMQKGRVETSRVVHIMDFQRGKNLRYQLLQLVEPFGVISNHLILNKINEAFIEMATTEDAQAAVDYYTTTPALVFGKPVRVHLSQKYKRIKKPEGKPDQKFDQKQELGRVIHLSNLPHSGYSDSAVLKLAEPYGKIKNYILMRMKSQAFIEMETREDAMAMVDHCLKKALWFQGRCVKVDLSEKYKKLVLRIPNRGIDLLKKDKSRKRSYSPDGKESPSDKKSKTDGSQKTESSTEGKEQEEKSGEDGEKDTKDDQTEQEPNMLLESEDELLVDEEEAAALLESGSSVGDETDLANLGDVASDGKKEPSDKAVKKDGSASAAAKKKLKKVDKIEELDQENEAALENGIKNEENTEPGAESSENADDPNKDTSENADGQSDENKDDYTIPDEYRIGPYQPNVPVGIDYVIPKTGFYCKLCSLFYTNEEVAKNTHCSSLPHYQKLKKFLNKLAEERRQKKET
Regarding B1, the binding result is on record as “binds”.
